Measurements: article PMC11589570, “Critical assessment of LC3/GABARAP ligands used for degrader development and ligandability of LC3/GABARAP binding pockets” (Nature Communications, 2024)
Where “and” joins values, the source holds several entries; their conditions need not be identical. Identical values can stand only once. Further values from the same series stand in other lists.

Test system: RPE1 cells
Experiment: Cell growth assay (IncuCyte confluence over 72 h)
Type: cell-based
Procedure: Cell growth assay: Cell confluence (phase) from RPE1 (hTERT RPE-1, ATCC CLR_4000) or U2OS (ATCC, HTB-96) cell lines were monitored over time with the IncuCyte S3 (Sartiorius, Germany) in 384-well plates in 50 ul DMEM media, supplemented with 10% Fetal Bovine Serum (FBS) 1% penicillin/Streptomycin and incubated 24 h before treatment. Experiment was performed as described in Cano-Franco et al.. 50 μl of media containing either 2× final concentration of indicated compounds in or control compounds (final conc.: 0.1% DMSO, 250 nM Torin1, 200 ng/mL Bafilomycin) were added and images were taken every two hours over 72 h. Cell confluence is represented as % of area covered by cells. Each data point represents the average ratio or confluence obtained from three individual wells of the plate.

Question: With O=C1Nc2ccc(Br)cc2C1=Cc1cc(O)c(O)c(Br)c1 [compound 1] as the compound, how does the RPE1 cell growth (5 uM, 70 h, listed as AN1) read?
Answer: 95 and 61 and 84

Question: And the RPE1 cell growth (5 uM, 72 h, listed as AN1)?
Answer: 97 and 62 and 88

Question: What about the RPE1 cell growth (5 uM, time 20 h, listed as AN1) of the same compound?
Answer: 47 and 36 and 40

Question: What about the RPE1 cell growth (5 uM, time 22 h, listed as AN1) of the same compound?
Answer: 49 and 38 and 43

Question: And the RPE1 cell growth (5 uM, time 24 h, listed as AN1)?
Answer: 56 and 39 and 44

Question: What about the RPE1 cell growth (5 uM, time 26 h, listed as AN1) of the same compound?
Answer: 60 and 42 and 47

Question: What about the RPE1 cell growth (5 uM, time 28 h, listed as AN1) of the same compound?
Answer: 62 and 45 and 49

Question: What about the RPE1 cell growth (5 uM, time 30 h, listed as AN1) of the same compound?
Answer: 67 and 51 and 53

Question: What about the RPE1 cell growth (5 uM, time 32 h, listed as AN1) of the same compound?
Answer: 72 and 53 and 57

Question: And the RPE1 cell growth (5 uM, time 34 h, listed as AN1)?
Answer: 75 and 58 and 60

Question: And the RPE1 cell growth (5 uM, time 36 h, listed as AN1)?
Answer: 80 and 63 and 64

Question: What about the RPE1 cell growth (5 uM, time 38 h, listed as AN1) of the same compound?
Answer: 82 and 66 and 68

Question: What about the RPE1 cell growth (5 uM, time 40 h, listed as AN1) of the same compound?
Answer: 87 and 70 and 72

Question: What about the RPE1 cell growth (5 uM, time 42 h, listed as AN1) of the same compound?
Answer: 90 and 73 and 76

Question: What about the RPE1 cell growth (5 uM, time 44 h, listed as AN1) of the same compound?
Answer: 92 and 78 and 81

Question: What about the RPE1 cell growth (5 uM, time 46 h, listed as AN1) of the same compound?
Answer: 95 and 83 and 85

Question: What about the RPE1 cell growth (5 uM, time 48 h, listed as AN1) of the same compound?
Answer: 97 and 88 and 89

Question: And the RPE1 cell growth (5 uM, time 50 h, listed as AN1)?
Answer: 98 and 91 and 92

Question: And the RPE1 cell growth (5 uM, time 52 h, listed as AN1)?
Answer: 99 and 95

Question: What about the RPE1 cell growth (5 uM, time 54 h, listed as AN1) of the same compound?
Answer: 99 and 97

Question: What about the RPE1 cell growth (5 uM, time 56 h, listed as AN1) of the same compound?
Answer: 100 and 99 and 98

Question: And the RPE1 cell growth (5 uM, time 58 h, listed as AN1)?
Answer: 100 and 99

Question: What about the RPE1 cell growth (5 uM, time 60 h, listed as AN1) of the same compound?
Answer: 100 and 99

Question: What about the RPE1 cell growth (5 uM, time 62 h) of the same compound?
Answer: 100

Question: And the RPE1 cell growth (5 uM, time 64 h)?
Answer: 100

Question: What about the RPE1 cell growth (5 uM, time 66 h) of the same compound?
Answer: 100

Question: And the RPE1 cell growth (5 uM, time 68 h)?
Answer: 100

Question: What about the RPE1 cell growth (5 uM, time 70 h) of the same compound?
Answer: 100

Question: And the RPE1 cell growth (5 uM, time 72 h)?
Answer: 100

Question: What about the RPE1 cell growth (10 uM, 0 h, listed as AN1) of the same compound?
Answer: 27 and 26 and 18

Question: And the RPE1 cell growth (10 uM, 2 h, listed as AN1)?
Answer: 34 and 30 and 21

Question: And the RPE1 cell growth (10 uM, 4 h, listed as AN1)?
Answer: 39 and 29 and 25

Question: What about the RPE1 cell growth (10 uM, 6 h, listed as AN1) of the same compound?
Answer: 46 and 29 and 27

Question: And the RPE1 cell growth (10 uM, 8 h, listed as AN1)?
Answer: 45 and 33 and 29

Question: And the RPE1 cell growth (10 uM, 22 h, listed as AN1)?
Answer: 57 and 44 and 38

Question: What about the RPE1 cell growth (10 uM, 24 h, listed as AN1) of the same compound?
Answer: 59 and 43 and 39

Question: And the RPE1 cell growth (10 uM, 26 h, listed as AN1)?
Answer: 59 and 42 and 41

Question: What about the RPE1 cell growth (10 uM, 28 h, listed as AN1) of the same compound?
Answer: 59 and 43 and 39

Question: And the RPE1 cell growth (10 uM, 30 h, listed as AN1)?
Answer: 62 and 45 and 41

Question: And the RPE1 cell growth (10 uM, 32 h, listed as AN1)?
Answer: 62 and 45 and 42

Question: And the RPE1 cell growth (10 uM, 34 h, listed as AN1)?
Answer: 62 and 42 and 43

Question: What about the RPE1 cell growth (10 uM, 36 h, listed as AN1) of the same compound?
Answer: 64 and 47 and 43

Question: And the RPE1 cell growth (10 uM, 38 h, listed as AN1)?
Answer: 64 and 45 and 42

Question: And the RPE1 cell growth (10 uM, 40 h, listed as AN1)?
Answer: 57 and 51 and 42

Question: What about the RPE1 cell growth (10 uM, 42 h, listed as AN1) of the same compound?
Answer: 65 and 48 and 42

Question: What about the RPE1 cell growth (10 uM, 44 h, listed as AN1) of the same compound?
Answer: 67 and 49 and 44

Question: What about the RPE1 cell growth (10 uM, 46 h, listed as AN1) of the same compound?
Answer: 68 and 48 and 44

Question: What about the RPE1 cell growth (10 uM, 48 h, listed as AN1) of the same compound?
Answer: 69 and 49 and 44

Question: And the RPE1 cell growth (10 uM, 50 h, listed as AN1)?
Answer: 70 and 48 and 43

Question: And the RPE1 cell growth (10 uM, 52 h, listed as AN1)?
Answer: 70 and 52 and 43

Question: And the RPE1 cell growth (10 uM, 54 h, listed as AN1)?
Answer: 72 and 47 and 44

Question: What about the RPE1 cell growth (10 uM, 56 h, listed as AN1) of the same compound?
Answer: 72 and 49 and 43

Question: And the RPE1 cell growth (10 uM, 58 h, listed as AN1)?
Answer: 73 and 49 and 43

Question: What about the RPE1 cell growth (10 uM, 60 h, listed as AN1) of the same compound?
Answer: 72 and 51 and 42

Question: And the RPE1 cell growth (10 uM, 62 h, listed as AN1)?
Answer: 74 and 50 and 43

Question: And the RPE1 cell growth (10 uM, 64 h, listed as AN1)?
Answer: 74 and 52 and 43

Question: And the RPE1 cell growth (10 uM, 66 h, listed as AN1)?
Answer: 76 and 53 and 43

Question: And the RPE1 cell growth (10 uM, 68 h, listed as AN1)?
Answer: 75 and 52 and 43

Question: And the RPE1 cell growth (10 uM, 70 h, listed as AN1)?
Answer: 77 and 51 and 42

Question: And the RPE1 cell growth (10 uM, 72 h, listed as AN1)?
Answer: 78 and 53 and 44

Question: What about the RPE1 cell growth (10 uM, time 20 h, listed as AN1) of the same compound?
Answer: 43 and 35 and 33

Question: What about the RPE1 cell growth (10 uM, time 22 h, listed as AN1) of the same compound?
Answer: 45 and 39 and 36

Question: What about the RPE1 cell growth (10 uM, time 24 h, listed as AN1) of the same compound?
Answer: 50 and 42 and 38

Question: What about the RPE1 cell growth (10 uM, time 26 h, listed as AN1) of the same compound?
Answer: 52 and 42 and 41

Question: And the RPE1 cell growth (10 uM, time 28 h, listed as AN1)?
Answer: 56 and 45 and 42

Question: What about the RPE1 cell growth (10 uM, time 30 h, listed as AN1) of the same compound?
Answer: 60 and 49 and 47

Question: What about the RPE1 cell growth (10 uM, time 32 h, listed as AN1) of the same compound?
Answer: 64 and 53 and 50

Question: And the RPE1 cell growth (10 uM, time 34 h, listed as AN1)?
Answer: 68 and 55 and 52

Question: And the RPE1 cell growth (10 uM, time 36 h, listed as AN1)?
Answer: 73 and 59 and 55

Question: What about the RPE1 cell growth (10 uM, time 38 h, listed as AN1) of the same compound?
Answer: 76 and 62 and 59

Question: What about the RPE1 cell growth (10 uM, time 40 h, listed as AN1) of the same compound?
Answer: 80 and 67 and 64

Question: What about the RPE1 cell growth (10 uM, time 42 h, listed as AN1) of the same compound?
Answer: 84 and 71 and 67

Question: And the RPE1 cell growth (10 uM, time 44 h, listed as AN1)?
Answer: 89 and 76 and 72

Question: And the RPE1 cell growth (10 uM, time 46 h, listed as AN1)?
Answer: 92 and 81 and 75

Question: And the RPE1 cell growth (10 uM, time 48 h, listed as AN1)?
Answer: 95 and 84 and 79

Question: And the RPE1 cell growth (10 uM, time 50 h, listed as AN1)?
Answer: 97 and 89 and 83

Question: What about the RPE1 cell growth (10 uM, time 52 h, listed as AN1) of the same compound?
Answer: 98 and 92 and 86

Question: And the RPE1 cell growth (10 uM, time 54 h, listed as AN1)?
Answer: 99 and 95 and 89

Question: And the RPE1 cell growth (10 uM, time 56 h, listed as AN1)?
Answer: 99 and 97 and 92

Question: What about the RPE1 cell growth (10 uM, time 58 h, listed as AN1) of the same compound?
Answer: 100 and 98 and 94

Question: And the RPE1 cell growth (10 uM, time 60 h, listed as AN1)?
Answer: 100 and 99 and 96

Question: And the RPE1 cell growth (10 uM, time 62 h, listed as AN1)?
Answer: 100 and 98

Question: What about the RPE1 cell growth (10 uM, time 64 h, listed as AN1) of the same compound?
Answer: 100 and 99

Question: What about the RPE1 cell growth (10 uM, time 66 h, listed as AN1) of the same compound?
Answer: 100 and 99

Question: What about the RPE1 cell growth (10 uM, time 68 h) of the same compound?
Answer: 100

Question: What about the RPE1 cell growth (10 uM, time 70 h) of the same compound?
Answer: 100

Question: And the RPE1 cell growth (10 uM, time 72 h)?
Answer: 100
